Assay results as given in US8557565B2, “Degradation of polycyclic aromatic hydrocarbons to render them available for biodegradation” (priority 1999, dated 2013).

Assays:
[1] = Mass and COD balance of PAH-packed column fed with ozonated water; settings: for Column after ozonation: 4 h ozonated water; for Amount reduced, column and effluent: 4 h ozonation
[2] = Biological incubation of ozonated column effluent, species identified by GC/MS; parameters: key to found in ozonated effluent, 0 day / found in ozonated effluent, 5 days / found in ozonated effluent, 10 days / found in ozonated effluent, 15 days / found in ozonated effluent, 20 days: •: found; ◯: not found; settings: pyrene column effluent; for found in ozonated effluent, 0 day: biological incubation 0 day; for found in ozonated effluent, 5 days: biological incubation 5 days; for found in ozonated effluent, 10 days: biological incubation 10 days; for found in ozonated effluent, 15 days: biological incubation 15 days; for found in ozonated effluent, 20 days: biological incubation 20 days
[3] = test system: Polyseed; assay: Biochemical oxygen demand (BOD) test; settings: pyrene solutions
[4] = pyrene-loaded column, 4 h, 10.5 L, GC/FID
[5] = benzo[a]pyrene-loaded column, listed as BaP

Compound | found in ozonated effluent, 0 day [2] | found in ozonated effluent, 5 days [2] | found in ozonated effluent, 10 days [2] | found in ozonated effluent, 15 days [2] | found in ozonated effluent, 20 days [2] | further results
O=Cc1cccc(C=O)c1-c1c(C=O)cccc1C=O [2,2′,6,6′-biphenyltetraaldehyde (3), 2,2′,6,6′-biphenyltetraaldehyde] | – | – | – | – | – | Effluent [1, 4]: 1.72 mg; Column after ozonation ([1]; pyrene-loaded column, GC/FID): 0 mg
O=Cc1cccc2ccc3cccc(C=O)c3c12 [4,5-phenanthrenedialdehyde (2), 4,5-phenanthrenedialdehyde] | • | • | • | • | • | Effluent [1, 4]: 1.43 mg; Column after ozonation ([1]; pyrene-loaded column, GC/FID): 0 mg
c1cc2c3c(c1)ccc1cccc(c13)C2 [4H-cyclopenta[def]phenanthrene (8)] | • | ◯ | ◯ | ◯ | ◯ | –
c1ccc2c(c1)cc1ccc3cccc4ccc2c1c34 [Benzo[a]pyrene] | – | – | – | – | – | COD, amount reduced, column and effluent ([1]; benzo[a]pyrene-loaded column): 36.0 mg O2; COD, column after ozonation ([1]; benzo[a]pyrene-loaded column): 340 mg O2; COD, effluent ([1]; benzo[a]pyrene-loaded column): 78.0 mg O2; mole ratio of consumed ozone to consumed BaP ([1]; benzo[a]pyrene-loaded column, 4 h): 7.6; Effluent ([1]; benzo[a]pyrene-loaded column, 4 h, 9.75 L): 0.0 mg; Column after ozonation ([1]; benzo[a]pyrene-loaded column, GC/FID): 117 mg; Amount reduced, column and effluent [1, 5]: 32.5 mg; COD, amount reduced, column and effluent [1, 5]: 36 mg O2
c1cc2ccc3cccc4ccc(c1)c2c34 [Pyrene] | • | ◯ | ◯ | ◯ | ◯ | BOD5/COD ratio [3]: 0.83; BOD5/COD ratio ([3]; as worded in text): over 80%; BOD5 ([3]; means ± standard deviations of triplicates): 0.83 ± 0.15 mg/L; COD, amount reduced, column and effluent ([1]; pyrene-loaded column): 36 mg O2; COD, column after ozonation ([1]; pyrene-loaded column): 280 mg O2; COD, effluent ([1]; pyrene-loaded column): 116 mg O2; mole ratio of consumed ozone to consumed pyrene ([1]; pyrene-loaded column, 4 h): 3.3; Effluent [1, 4]: 1.24 mg; Column after ozonation ([1]; pyrene-loaded column, GC/FID): 74.6 mg; Amount reduced, column and effluent ([1]; pyrene-loaded column): 73.8 mg
CCCCOC(=O)c1ccccc1C(=O)OCc1ccccc1 [benzylbutyl phthalate (5), benzylbutyl phthalate] | • | • | • | • | • | –
c1cc2c3c(c1)ccc1cccc(c13)C2 [cyclopenta[def]phenanthrene (9)] | • | • | • | • | • | –
CCCCOC(=O)c1ccccc1C(=O)OCCCC [dibutyl phthalate (12), dibutyl phthalate] | • | • | • | • | • | –
CCOC(=O)c1ccccc1C(=O)OCC [diethyl phthalate (6), diethyl phthalate] | ◯ | ◯ | ◯ | ◯ | ◯ | –
O=C1OC(=O)c2ccccc21 [phthalic anhydride (7), phthalic anhydride] | • | ◯ | ◯ | ◯ | ◯ | –
O=c1c2ccccc2oc2ccccc12 [xanthone (10), xanthone] | • | ◯ | ◯ | ◯ | ◯ | –
nonyl phenol [nonyl phenol (13)] | • | ◯ | ◯ | ◯ | ◯ | fate during the first 5 days of incubation [2]: disappearance
